The list is a part of this screen's results and no random one: it is rich in T/C values a quarter to a half above the control, in often repeated tests (any T/C) and in doses without a T/C. Other doses and runs of a compound stand elsewhere. T/C is the treated group as % of the vehicle group. Some entries give survivors of the animals treated and no T/C: the source holds a T/C of zero for them, seemingly a mark for toxic or unscored doses. Some doses without a T/C left all or most animals alive at the check, yet need not have been tolerated: survival well below the control is almost never listed, so the zero probably covers shortened survival too. Survivors were counted at the toxicity check, usually on the fifth day, unless a day is given; later deaths do not show. Schedules are NCI's codes, read here as Q, the interval in days (D) or hours (H), X, the number of doses. Some doses were run more than once; the values are given in rising order. Some schedules carry Z or #; the key to these is not given. For survival time, the PubChem record calls one and a half times the control and up active, and a quarter to a half above the control has no call in these data; cut-offs in other NCI protocols can differ. Some T/C values carry the count of animals alive at the toxicity check (mostly the fifth day); where none is given, no animal had died by that day.
Test system: BDF1 mice, P388 leukemia ip, median survival T/C
Experiment: NCI In Vivo Anticancer Drug Screen. Data for tumor model P388 Leukemia (intraperitoneal) in B6D2F1 (BDF1) mice
Settings: T/C endpoint: median survival time, higher T/C = longer survival
In short: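 Each value expresses how treatment altered survival: treated-mouse outcome over vehicle-mouse outcome, both groups bearing the transplanted tumour.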

[1] = dose: 50.0 mg/kg/injection, schedule: Q01DX009 (ip), vehicle: saline
[2] = dose: 100.0 mg/kg/injection, schedule: Q01DX009 (ip), vehicle: saline
[3] = dose: 400.0 mg/kg/injection, schedule: Q04DX003 (ip), vehicle: saline
[4] = dose: 200.0 mg/kg/injection, schedule: Q04DX003 (ip), vehicle: saline with Tween-80
[5] = dose: 400.0 mg/kg/injection, schedule: Q01DX009 (ip), vehicle: saline
[6] = dose: 400.0 mg/kg/injection, schedule: Q04DX003 (ip), vehicle: saline with Tween-80
[7] = dose: 100.0 mg/kg/injection, schedule: Q04DX003 (ip), vehicle: saline
[8] = dose: 200.0 mg/kg/injection, schedule: Q04DX003 (ip), vehicle: saline
[9] = dose: 150.0 mg/kg/injection, schedule: Q01DX009 (ip), vehicle: saline
[10] = dose: 400.0 mg/kg/injection, schedule: Q04DX003 (ip), vehicle: Klucel (hydroxypropylcellulose) (HPC)
[11] = dose: 50.0 mg/kg/injection, schedule: Q01DX009 (ip), vehicle: Klucel (hydroxypropylcellulose) (HPC)
[12] = dose: 100.0 mg/kg/injection, schedule: Q01DX009 (ip), vehicle: Klucel (hydroxypropylcellulose) (HPC)
[13] = dose: 200.0 mg/kg/injection, schedule: Q01DX009 (ip), vehicle: Klucel (hydroxypropylcellulose) (HPC)

In the case of `CCN(CC)CCN1C(=O)c2cccc3cccc(c23)C1=O`, the survivor count [1] is reported as 6 of 6, the T/C [2] is reported as 127 [5 of 6 alive], 140, 150, 154 % of control and the survivor count (dose: 200.0 mg/kg/injection, schedule: Q01DX009 (ip), vehicle: saline) is reported as 2 of 6 and 3 of 6. For the same molecule, the survivor count [3] was 0 of 6.
In the case of `O=CC(=O)c1ccc(O)cc1`, the T/C (dose: 25.0 mg/kg/injection, schedule: Q01DX009 (ip), vehicle: saline) is reported as 131 % of control, the T/C [1] is reported as 136 % of control and the T/C (dose: 65.0 mg/kg/injection, schedule: Q01DX006 (ip), vehicle: saline) is reported as 126 % of control. The T/C (dose: 88.0 mg/kg/injection, schedule: Q04DX003 (ip), vehicle: saline with Tween-80) was 127 % of control, the T/C (dose: 100.0 mg/kg/injection, schedule: Q01DX006 (ip), vehicle: saline) was 144 % of control and the T/C [2] was 147 % of control. For the same molecule, the T/C (dose: 100.0 mg/kg/injection, schedule: Q04DX003 (ip), vehicle: saline sonified) was 127 % of control, the T/C (dose: 132.0 mg/kg/injection, schedule: Q04DX003 (ip), vehicle: saline sonified) was 140 % of control and the T/C (dose: 132.0 mg/kg/injection, schedule: Q04DX003 (ip), vehicle: saline with Tween-80) was 127 % of control. For the same molecule, the T/C (dose: 200.0 mg/kg/injection, schedule: Q04DX003 (ip), vehicle: saline sonified) was 127 and 136 % of control, the T/C [4] was 136 % of control and the survivor count (dose: 300.0 mg/kg/injection, schedule: Q04DX003 (ip), vehicle: saline sonified) was 2 of 6.
`CCCC#CCOCC(O)CCl` (stereo unspecified) was tested, and the survivor count [5] was 2 of 6 and the survivor count [6] was 3 of 6.
In the case of `O=C(O)c1cc(Br)ccc1OCc1cccc(Cl)c1`, the survivor count [4] is reported as 0 of 6 and the survivor count [6] is reported as 0 of 6.
With `CCOC(=O)C(CC)(CCC(C)C)C(=O)OCC` the T/C [7] was 127 % of control, the T/C [8] was 127 % of control and the T/C [3] was 131 % of control.
In the case of `OCCC1(CCO)CCCCC1`, the survivor count (dose: 80.0 mg/kg/injection, schedule: Q01DX009 (ip), vehicle: saline with Tween-80) is reported as 6 of 6 and the survivor count [4] is reported as 0 of 6.
For `O=C(O)C(O)C(O)C1[O][Sb][O]C1CO` (stereo unspecified), the T/C (dose: 35.0 mg/kg/injection, schedule: Q01DX009 (ip), vehicle: saline) was 127 % of control, the T/C (dose: 35.0 mg/kg/injection, schedule: Q04DX003 (ip), vehicle: saline) was 140 % of control and the T/C (dose: 50.0 mg/kg/injection, schedule: Q04DX003 (ip), vehicle: saline) was 135 % of control. For the same molecule, the T/C (dose: 66.0 mg/kg/injection, schedule: Q04DX003 (ip), vehicle: saline) was 130 and 140 % of control, the T/C [2] was 141 % of control and the T/C [7] was 131, 135, 140 % of control. The T/C [9] was 145 % of control, the survivor count [9] was 6 of 6 and the T/C (dose: 150.0 mg/kg/injection, schedule: Q04DX003 (ip), vehicle: saline) was 140 % of control. For the same molecule, the T/C [8] was 125 % of control [4 of 6 alive], the survivor count (dose: 300.0 mg/kg/injection, schedule: Q01DX009 (ip), vehicle: saline) was 0 of 6 and the T/C (dose: 300.0 mg/kg/injection, schedule: Q04DX003 (ip), vehicle: saline) was 130 % of control [4 of 6 alive].
In the case of `COC(=O)C1(N)CCCC1`, the survivor count [5] is reported as 5 of 6.
`CC(C)N1CCOCC1` was tested, and the survivor count [9] was 0 of 6, the survivor count (dose: 225.0 mg/kg/injection, schedule: Q01DX009 (ip), vehicle: saline) was 0 of 6 and the survivor count (dose: 335.0 mg/kg/injection, schedule: Q01DX009 (ip), vehicle: saline) was 0 of 6.
`CCCCCCCCC(=O)N1CC1` was tested, and the survivor count [10] was 2 of 6.
For `COc1ccc(OC)c(/C=C(/C)[N+](=O)[O-])c1`, the T/C (dose: 100.0 mg/kg/injection, schedule: Q04DX003 (ip), vehicle: saline with Tween-80) was 127 % of control, the T/C [4] was 131 % of control [5 of 6 alive] and the survivor count [6] was 4 of 6.
For `C=C(C)C12OC3(c4ccccc4)OC1C1C4OC4(CO)C(O)C4(O)C(=O)C(C)=CC4C1(O3)C(C)C2OC(=O)/C=C/C=C/CCCCC` (stereo unspecified), the T/C (dose: 50.0 micrograms/kg/injection, schedule: Q## X009 (ip), vehicle: saline + alcohol) was 127 % of control, the survivor count (dose: 100.0 micrograms/kg/injection, schedule: Q## X009 (ip), vehicle: saline + alcohol) was 5 of 6 and the survivor count (dose: 400.0 micrograms/kg/injection, schedule: Q## X009 (ip), vehicle: saline + alcohol) was 4 of 6.
`O=S(=O)(Nc1ccc(NS(=O)(=O)c2ccccc2)cc1)c1ccccc1` was tested, and the survivor count (dose: 25.0 mg/kg/injection, schedule: Q01DX009 (ip), vehicle: Klucel (hydroxypropylcellulose) (HPC)) was 6 of 6, the survivor count [11] was 5 of 6 and the survivor count [12] was 6 of 6. The survivor count [13] was 6 of 6 and the survivor count (dose: 400.0 mg/kg/injection, schedule: Q01DX009 (ip), vehicle: Klucel (hydroxypropylcellulose) (HPC)) was 5 of 5.
For `CSC1CCCC(=O)C1` (stereo unspecified), the survivor count [11] was 5 of 6.
For `O=CC(NC(=O)N(CCCl)N=O)C(O)C(O)C(O)CO` (stereo unspecified), the T/C (dose: 2.0 mg/kg/injection, schedule: Q01DX009 (ip), vehicle: saline) was 146 % of control, the T/C (dose: 3.0 mg/kg/injection, schedule: Q01DX009 (ip), vehicle: saline) was 129 % of control and the T/C (dose: 4.5 mg/kg/injection, schedule: Q01DX009 (ip), vehicle: saline) was 146 % of control. For the same molecule, the survivor count (dose: 30.0 mg/kg/injection, schedule: Q04DX003 (ip), vehicle: saline) was 8 of 8, the survivor count (dose: 45.0 mg/kg/injection, schedule: Q01DX001 (ip), vehicle: saline) was 6 of 6 and the survivor count (dose: 67.0 mg/kg/injection, schedule: Q01DX001 (ip), vehicle: saline) was 9 of 10 and 6 of 6.
`O=C1C(C2CCCCC2)CCCC1C1CCCCC1` (stereo unspecified) was tested, and the survivor count (dose: 400.0 mg/kg/injection, schedule: Q01DX001 (ip), vehicle: saline with Tween-80) was 6 of 6.
`CCSC(C(OC(C)=O)C(OC(C)=O)C(OC(C)=O)C(COC(C)=O)OC(C)=O)n1cnc2c(=S)nc[nH]c21` (stereo unspecified) was tested, and the survivor count (dose: 50.0 mg/kg/injection, schedule: Q01DX005 (ip), vehicle: saline with Tween-80) was 6 of 6.
`CNc1ccc(/C=C2\C=Cc3ccccc32)cc1` was tested, and the survivor count [11] was 6 of 6, the survivor count [12] was 6 of 6 and the survivor count (dose: 100.0 mg/kg/injection, schedule: Q04DX003 (ip), vehicle: Klucel (hydroxypropylcellulose) (HPC)) was 5 of 6. The survivor count [13] was 3 of 6, the survivor count (dose: 200.0 mg/kg/injection, schedule: Q04DX003 (ip), vehicle: Klucel (hydroxypropylcellulose) (HPC)) was 1 of 6 and 4 of 6 and the survivor count [10] was 0 of 6 and 1 of 6.
In the case of `Cc1cc(NCCCCNCCCNc2cc(C)nc3cc(N)ccc23)c2ccc(N)cc2n1`, the T/C (dose: 6.25 mg/kg/injection, schedule: Q01DX009 (ip), vehicle: other) is reported as 128 % of control, the survivor count (dose: 25.0 mg/kg/injection, schedule: Q01DX009 (ip), vehicle: other) is reported as 3 of 6 and the survivor count (dose: 50.0 mg/kg/injection, schedule: Q01DX009 (ip), vehicle: other) is reported as 0 of 6. The survivor count (dose: 100.0 mg/kg/injection, schedule: Q01DX009 (ip), vehicle: other) was 0 of 6.
With `CCC(C)C1NC(=O)C(NC(=O)c2c3nc4c(C(=O)NC5C(=O)NC(C(C)CC)C(=O)N6CCCC6C(=O)N(C)CC(=O)N(C)C(C(C)C)C(=O)OC5C)cc(N)c(C)c4oc-3c(C)c(=O)c2N)C(C)OC(=O)C(C(C)C)N(C)C(=O)CN(C)C(=O)C2CCCN2C1=O` (stereo unspecified) the T/C (dose: 0.15 mg/kg/injection, schedule: Q04DX003 (ip), vehicle: saline + alcohol) was 131 % of control, the T/C (dose: 0.3 mg/kg/injection, schedule: Q04DX003 (ip), vehicle: saline + alcohol) was 138 % of control [6 of 8 alive] and the T/C (dose: 1.2 mg/kg/injection, schedule: Q04DX003 (ip), vehicle: saline + alcohol) was 142 % of control. For the same molecule, the survivor count (dose: 2.4 mg/kg/injection, schedule: Q04DX003 (ip), vehicle: saline + alcohol) was 2 of 8 and 5 of 8.
